Results published in publication PMC7455564.

Sequences of proteins named here, by UniProt entry; tags and fusion partners are left off.
UniProt Q16531: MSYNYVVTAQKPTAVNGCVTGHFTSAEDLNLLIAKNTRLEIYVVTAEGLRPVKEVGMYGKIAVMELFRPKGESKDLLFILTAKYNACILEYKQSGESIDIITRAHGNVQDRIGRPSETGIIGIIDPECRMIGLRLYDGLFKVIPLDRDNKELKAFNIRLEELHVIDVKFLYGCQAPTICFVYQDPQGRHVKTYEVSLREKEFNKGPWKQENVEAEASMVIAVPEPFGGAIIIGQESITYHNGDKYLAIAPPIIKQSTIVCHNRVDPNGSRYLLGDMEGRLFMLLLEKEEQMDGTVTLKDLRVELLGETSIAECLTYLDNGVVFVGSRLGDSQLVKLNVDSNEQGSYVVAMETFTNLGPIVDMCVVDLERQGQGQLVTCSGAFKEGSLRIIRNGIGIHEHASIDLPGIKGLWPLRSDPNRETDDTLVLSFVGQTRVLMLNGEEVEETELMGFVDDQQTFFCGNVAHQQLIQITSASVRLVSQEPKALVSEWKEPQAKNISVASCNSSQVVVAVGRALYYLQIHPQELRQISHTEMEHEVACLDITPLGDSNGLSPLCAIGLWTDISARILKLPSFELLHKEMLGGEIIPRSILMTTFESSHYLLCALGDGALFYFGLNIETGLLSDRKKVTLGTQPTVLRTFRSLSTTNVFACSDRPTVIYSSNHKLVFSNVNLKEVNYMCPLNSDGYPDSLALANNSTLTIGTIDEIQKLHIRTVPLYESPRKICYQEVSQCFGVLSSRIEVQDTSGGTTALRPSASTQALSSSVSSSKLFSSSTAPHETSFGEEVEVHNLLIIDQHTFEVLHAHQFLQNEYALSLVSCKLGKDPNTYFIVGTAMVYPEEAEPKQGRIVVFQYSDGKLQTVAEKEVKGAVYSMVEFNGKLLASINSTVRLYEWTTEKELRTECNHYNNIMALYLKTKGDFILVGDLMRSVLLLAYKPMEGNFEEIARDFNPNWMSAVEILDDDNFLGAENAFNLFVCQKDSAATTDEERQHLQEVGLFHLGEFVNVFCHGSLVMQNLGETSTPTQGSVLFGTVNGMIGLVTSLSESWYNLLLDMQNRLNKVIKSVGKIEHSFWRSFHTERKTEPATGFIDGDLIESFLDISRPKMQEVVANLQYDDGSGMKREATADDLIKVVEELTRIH
UniProt P78527: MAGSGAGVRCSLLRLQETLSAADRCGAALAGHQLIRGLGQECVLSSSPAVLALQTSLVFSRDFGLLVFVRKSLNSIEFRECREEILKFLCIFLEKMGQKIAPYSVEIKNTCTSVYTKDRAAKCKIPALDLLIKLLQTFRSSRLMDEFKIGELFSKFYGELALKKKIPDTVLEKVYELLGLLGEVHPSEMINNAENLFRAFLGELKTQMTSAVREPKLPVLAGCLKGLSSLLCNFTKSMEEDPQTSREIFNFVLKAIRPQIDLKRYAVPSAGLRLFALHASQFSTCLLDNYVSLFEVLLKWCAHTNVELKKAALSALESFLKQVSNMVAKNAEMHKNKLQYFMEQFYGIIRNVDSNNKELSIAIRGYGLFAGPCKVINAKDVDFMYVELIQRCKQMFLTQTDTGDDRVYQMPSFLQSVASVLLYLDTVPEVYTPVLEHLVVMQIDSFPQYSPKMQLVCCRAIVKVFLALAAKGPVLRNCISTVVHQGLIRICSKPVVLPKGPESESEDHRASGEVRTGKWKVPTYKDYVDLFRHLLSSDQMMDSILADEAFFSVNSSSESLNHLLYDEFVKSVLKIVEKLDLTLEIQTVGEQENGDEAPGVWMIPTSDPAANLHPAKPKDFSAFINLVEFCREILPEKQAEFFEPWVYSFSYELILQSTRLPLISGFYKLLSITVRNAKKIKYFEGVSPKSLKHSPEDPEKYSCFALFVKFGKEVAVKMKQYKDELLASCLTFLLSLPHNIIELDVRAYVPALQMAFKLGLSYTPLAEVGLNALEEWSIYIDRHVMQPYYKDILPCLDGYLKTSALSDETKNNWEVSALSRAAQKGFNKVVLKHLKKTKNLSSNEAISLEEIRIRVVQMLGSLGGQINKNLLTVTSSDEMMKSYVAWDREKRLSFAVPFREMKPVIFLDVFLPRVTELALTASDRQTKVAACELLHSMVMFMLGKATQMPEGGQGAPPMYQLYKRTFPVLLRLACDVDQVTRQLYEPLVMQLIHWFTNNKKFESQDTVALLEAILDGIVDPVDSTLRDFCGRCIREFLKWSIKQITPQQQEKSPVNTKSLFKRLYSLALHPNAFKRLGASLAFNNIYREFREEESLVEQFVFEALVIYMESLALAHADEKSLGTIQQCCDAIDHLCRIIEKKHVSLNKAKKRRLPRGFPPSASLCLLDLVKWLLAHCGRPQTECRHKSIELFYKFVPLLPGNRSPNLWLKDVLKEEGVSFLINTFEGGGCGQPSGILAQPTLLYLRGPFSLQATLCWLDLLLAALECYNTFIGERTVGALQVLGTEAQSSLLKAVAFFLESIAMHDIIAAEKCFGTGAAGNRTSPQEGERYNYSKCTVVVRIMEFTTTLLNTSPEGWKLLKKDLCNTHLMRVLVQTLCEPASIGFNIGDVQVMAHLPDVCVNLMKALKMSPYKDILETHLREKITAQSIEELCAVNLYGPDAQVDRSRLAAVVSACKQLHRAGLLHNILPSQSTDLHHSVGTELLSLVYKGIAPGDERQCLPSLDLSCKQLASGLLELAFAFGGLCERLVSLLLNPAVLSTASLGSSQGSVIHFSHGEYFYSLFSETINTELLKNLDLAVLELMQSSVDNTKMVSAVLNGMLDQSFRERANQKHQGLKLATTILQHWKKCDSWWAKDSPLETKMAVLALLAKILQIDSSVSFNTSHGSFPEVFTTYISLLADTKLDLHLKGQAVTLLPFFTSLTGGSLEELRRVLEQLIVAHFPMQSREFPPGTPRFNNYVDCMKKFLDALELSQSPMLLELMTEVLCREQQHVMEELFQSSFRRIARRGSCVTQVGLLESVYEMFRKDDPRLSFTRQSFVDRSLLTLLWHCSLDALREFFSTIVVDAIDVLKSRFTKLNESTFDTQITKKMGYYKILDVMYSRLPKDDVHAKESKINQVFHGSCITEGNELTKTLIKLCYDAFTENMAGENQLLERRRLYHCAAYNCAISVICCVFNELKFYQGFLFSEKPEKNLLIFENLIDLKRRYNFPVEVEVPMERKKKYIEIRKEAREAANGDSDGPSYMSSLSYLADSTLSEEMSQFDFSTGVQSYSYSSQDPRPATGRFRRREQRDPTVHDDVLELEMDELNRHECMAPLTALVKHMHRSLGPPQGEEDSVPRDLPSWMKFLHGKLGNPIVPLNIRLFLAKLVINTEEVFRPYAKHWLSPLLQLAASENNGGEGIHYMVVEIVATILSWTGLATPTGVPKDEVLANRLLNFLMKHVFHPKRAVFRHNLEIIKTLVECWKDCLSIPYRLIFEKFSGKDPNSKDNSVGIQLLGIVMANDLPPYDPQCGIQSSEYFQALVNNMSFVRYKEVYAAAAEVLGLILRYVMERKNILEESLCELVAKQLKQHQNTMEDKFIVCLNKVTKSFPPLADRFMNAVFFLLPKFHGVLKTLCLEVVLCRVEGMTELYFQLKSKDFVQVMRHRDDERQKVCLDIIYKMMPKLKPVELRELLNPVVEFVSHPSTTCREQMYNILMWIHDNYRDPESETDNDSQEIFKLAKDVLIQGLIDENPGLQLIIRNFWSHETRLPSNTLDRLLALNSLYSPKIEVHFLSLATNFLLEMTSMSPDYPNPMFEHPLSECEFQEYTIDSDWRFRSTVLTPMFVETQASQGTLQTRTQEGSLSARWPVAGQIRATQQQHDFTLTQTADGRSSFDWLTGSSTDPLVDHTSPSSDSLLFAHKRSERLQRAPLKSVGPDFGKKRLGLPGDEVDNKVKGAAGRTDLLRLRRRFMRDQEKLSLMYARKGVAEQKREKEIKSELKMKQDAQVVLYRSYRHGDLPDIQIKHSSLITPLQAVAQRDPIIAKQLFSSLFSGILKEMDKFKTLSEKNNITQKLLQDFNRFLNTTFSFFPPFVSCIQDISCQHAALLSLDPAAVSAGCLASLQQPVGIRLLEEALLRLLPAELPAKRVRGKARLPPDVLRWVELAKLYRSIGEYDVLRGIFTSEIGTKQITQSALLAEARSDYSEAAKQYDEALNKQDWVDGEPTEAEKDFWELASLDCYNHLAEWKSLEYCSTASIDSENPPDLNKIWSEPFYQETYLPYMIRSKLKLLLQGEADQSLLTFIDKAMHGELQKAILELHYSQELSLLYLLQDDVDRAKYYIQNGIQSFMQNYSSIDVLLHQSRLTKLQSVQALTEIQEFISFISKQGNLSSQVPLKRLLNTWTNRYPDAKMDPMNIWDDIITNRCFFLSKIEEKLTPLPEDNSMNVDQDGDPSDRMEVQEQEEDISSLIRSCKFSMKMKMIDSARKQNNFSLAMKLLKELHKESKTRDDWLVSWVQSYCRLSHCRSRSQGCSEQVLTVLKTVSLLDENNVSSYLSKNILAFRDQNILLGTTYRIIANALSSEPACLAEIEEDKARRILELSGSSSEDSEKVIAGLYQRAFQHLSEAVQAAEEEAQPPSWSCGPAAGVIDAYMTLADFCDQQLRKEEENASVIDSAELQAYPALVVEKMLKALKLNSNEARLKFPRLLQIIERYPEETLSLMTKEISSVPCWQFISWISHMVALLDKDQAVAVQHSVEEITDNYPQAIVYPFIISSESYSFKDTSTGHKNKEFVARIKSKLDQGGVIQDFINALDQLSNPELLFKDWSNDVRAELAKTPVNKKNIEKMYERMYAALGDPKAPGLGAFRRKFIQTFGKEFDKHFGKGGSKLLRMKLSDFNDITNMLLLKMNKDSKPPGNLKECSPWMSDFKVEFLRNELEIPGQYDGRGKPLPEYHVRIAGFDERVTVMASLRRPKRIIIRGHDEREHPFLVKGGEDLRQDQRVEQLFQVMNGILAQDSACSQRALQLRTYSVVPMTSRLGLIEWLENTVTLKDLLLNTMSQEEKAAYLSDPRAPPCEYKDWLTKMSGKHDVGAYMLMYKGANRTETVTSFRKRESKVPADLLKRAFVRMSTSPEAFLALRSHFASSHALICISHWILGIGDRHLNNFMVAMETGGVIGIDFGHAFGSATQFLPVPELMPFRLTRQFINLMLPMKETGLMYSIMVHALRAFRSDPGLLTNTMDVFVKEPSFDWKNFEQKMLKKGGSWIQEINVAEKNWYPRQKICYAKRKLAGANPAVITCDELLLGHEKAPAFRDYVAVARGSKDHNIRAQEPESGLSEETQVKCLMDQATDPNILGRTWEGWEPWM
UniProt P09874: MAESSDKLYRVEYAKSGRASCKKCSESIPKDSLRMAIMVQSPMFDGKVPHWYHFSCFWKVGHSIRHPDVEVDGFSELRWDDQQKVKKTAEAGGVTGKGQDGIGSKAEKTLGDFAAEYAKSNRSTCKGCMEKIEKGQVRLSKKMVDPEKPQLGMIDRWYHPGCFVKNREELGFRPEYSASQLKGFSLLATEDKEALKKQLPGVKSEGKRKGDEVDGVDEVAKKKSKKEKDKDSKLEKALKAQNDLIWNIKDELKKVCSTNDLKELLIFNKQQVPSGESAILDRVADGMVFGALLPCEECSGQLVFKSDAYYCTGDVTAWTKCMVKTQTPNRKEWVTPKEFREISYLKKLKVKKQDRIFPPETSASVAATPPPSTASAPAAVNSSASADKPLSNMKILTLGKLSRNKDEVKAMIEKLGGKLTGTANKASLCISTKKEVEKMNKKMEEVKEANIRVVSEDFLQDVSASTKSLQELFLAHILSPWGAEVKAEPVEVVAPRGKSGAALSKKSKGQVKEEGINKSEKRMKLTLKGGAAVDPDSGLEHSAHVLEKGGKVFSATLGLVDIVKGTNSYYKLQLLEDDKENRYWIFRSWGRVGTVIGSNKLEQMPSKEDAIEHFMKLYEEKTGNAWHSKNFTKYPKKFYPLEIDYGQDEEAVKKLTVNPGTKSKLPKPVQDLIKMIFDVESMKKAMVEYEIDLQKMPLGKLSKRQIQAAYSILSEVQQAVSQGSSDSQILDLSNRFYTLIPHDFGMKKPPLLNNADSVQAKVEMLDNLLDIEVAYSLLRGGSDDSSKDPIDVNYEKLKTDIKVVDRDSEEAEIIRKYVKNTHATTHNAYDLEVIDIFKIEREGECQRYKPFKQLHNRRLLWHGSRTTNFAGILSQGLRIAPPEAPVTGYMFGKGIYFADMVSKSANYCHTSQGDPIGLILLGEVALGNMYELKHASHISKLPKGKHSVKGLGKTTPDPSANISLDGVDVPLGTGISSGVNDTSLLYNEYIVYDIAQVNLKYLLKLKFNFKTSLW
UniProt P12004: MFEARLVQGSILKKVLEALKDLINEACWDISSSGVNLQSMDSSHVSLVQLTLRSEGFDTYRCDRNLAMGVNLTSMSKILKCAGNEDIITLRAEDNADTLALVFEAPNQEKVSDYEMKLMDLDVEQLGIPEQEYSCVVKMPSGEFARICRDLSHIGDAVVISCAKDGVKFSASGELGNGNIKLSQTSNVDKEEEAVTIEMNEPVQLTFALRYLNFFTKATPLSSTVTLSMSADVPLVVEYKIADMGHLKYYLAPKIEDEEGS

Experiments:
[1] = target: T1, TAP-XRN2 (5′-3′-exoribonuclease 2 with a tandem affinity purification tag) (human) (UniProt Q9H0D6); experiment: affinity purification with mass spectrometry; tandem affinity purification of TAP-XRN2 from stable cells, TAP-empty vector as negative control; three biological replicates; hits filtered (peptide sequences ≥ 5, PSM ≥ 5, % coverage ≥ 5, TAP-XRN2/TAP ratio > 1.0)
T1 sequence: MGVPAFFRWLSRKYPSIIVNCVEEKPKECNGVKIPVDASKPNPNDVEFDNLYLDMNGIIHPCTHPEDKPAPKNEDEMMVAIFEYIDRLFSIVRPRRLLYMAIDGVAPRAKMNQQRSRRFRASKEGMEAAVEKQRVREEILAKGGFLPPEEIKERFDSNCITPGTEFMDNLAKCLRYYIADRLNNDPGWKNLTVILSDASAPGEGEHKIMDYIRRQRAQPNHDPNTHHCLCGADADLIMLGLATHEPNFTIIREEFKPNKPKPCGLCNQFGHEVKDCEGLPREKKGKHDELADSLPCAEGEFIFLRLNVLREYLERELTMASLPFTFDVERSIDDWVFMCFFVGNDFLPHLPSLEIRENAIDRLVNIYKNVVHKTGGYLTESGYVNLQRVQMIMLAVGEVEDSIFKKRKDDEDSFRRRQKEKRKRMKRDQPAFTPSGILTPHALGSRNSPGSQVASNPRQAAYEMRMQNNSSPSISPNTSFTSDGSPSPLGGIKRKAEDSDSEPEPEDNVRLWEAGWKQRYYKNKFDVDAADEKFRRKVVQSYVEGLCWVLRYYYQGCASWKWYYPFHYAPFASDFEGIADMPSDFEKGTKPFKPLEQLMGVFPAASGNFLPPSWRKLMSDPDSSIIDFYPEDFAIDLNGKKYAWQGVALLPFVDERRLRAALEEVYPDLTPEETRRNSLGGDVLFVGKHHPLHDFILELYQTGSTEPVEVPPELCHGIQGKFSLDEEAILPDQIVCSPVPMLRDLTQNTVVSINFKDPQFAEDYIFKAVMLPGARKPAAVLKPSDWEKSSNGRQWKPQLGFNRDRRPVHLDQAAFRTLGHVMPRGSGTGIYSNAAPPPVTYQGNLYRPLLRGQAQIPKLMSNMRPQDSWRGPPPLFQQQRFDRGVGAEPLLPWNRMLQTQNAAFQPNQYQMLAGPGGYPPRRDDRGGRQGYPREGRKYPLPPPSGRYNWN

[2] = target: T2, TAP-XRN2 (5′-3′-exoribonuclease 2 with a tandem affinity purification tag) (human), Q9H0D6; experiment: as above; details: remark: other sources report otherwise
T2 chain: T1 sequence

- binding [1]: no binding
Molecule: 53BP1 (from UniProt Q12888 1-1972)

- binding [1]: binds
Molecule: DDB1 (from UniProt Q16531 1-1140)

- binding [1]: binds
Molecule: DNA-PKcs (from UniProt P78527 1-4128)

- binding [1]: binds
Molecule: Ku70 (from UniProt P12956 1-609)

- binding [1]: binds
Molecule: Ku80 (from UniProt P13010 1-732)

- binding [1]: binds
Molecule: PARP1 (endogenous, TAP-XRN2 cells) (from UniProt P09874 1-1014)

- binding [1]: binds
Molecule: PCNA (from UniProt P12004 1-261)

- binding [1]: binds
Molecule: RPA1 (from UniProt P27694 1-616)

- binding [2]: no binding
B1: CARF, Q9NXV6 1-580 (protein)
chain: MAQEVSEYLSQNPRVAAWVEALRCDGETDKHWRHRRDFLLRNAGDLAPAGGAASASTDEAADAESGTRNRQLQQLISFSMAWANHVFLGCRYPQKVMDKILSMAEGIKVTDAPTYTTRDELVAKVKKRGISSSNEGVEEPSKKRVIEGKNSSAVEQDHAKTSAKTERASAQQENSSTCIGSAIKSESGNSARSSGISSQNSSTSDGDRSVSSQSSSSVSSQVTTAGSGKASEAEAPDKHGSASFVSLLKSSVNSHMTQSTDSRQQSGSPKKSALEGSSASASQSSSEIEVPLLGSSGSSEVELPLLSSKPSSETASSGLTSKTSSEASVSSSVAKNSSSSGTSLLTPKSSSSTNTSLLTSKSTSQVAASLLASKSSSQTSGSLVSKSTSLASVSQLASKSSSQTSTSQLPSKSTSQSSESSVKFSCKLTNEDVKQKQPFFNRLYKTVAWKLVAVGGFSPNVNHGELLNAAIEALKATLDVFFVPLKELADLPQNKSSQESIVCELRCKSVYLGTGCGKSKENAKAVASREALKLFLKKKVVVKICKRKYRGSEIEDLVLLDEESRPVNLPPALKHPQELL

- binding [1]: binds
B2: DDX1 (protein, UniProt Q92499 1-740)
chain: MAAFSEMGVMPEIAQAVEEMDWLLPTDIQAESIPLILGGGDVLMAAETGSGKTGAFSIPVIQIVYETLKDQQEGKKGKTTIKTGASVLNKWQMNPYDRGSAFAIGSDGLCCQSREVKEWHGCRATKGLMKGKHYYEVSCHDQGLCRVGWSTMQASLDLGTDKFGFGFGGTGKKSHNKQFDNYGEEFTMHDTIGCYLDIDKGHVKFSKNGKDLGLAFEIPPHMKNQALFPACVLKNAELKFNFGEEEFKFPPKDGFVALSKAPDGYIVKSQHSGNAQVTQTKFLPNAPKALIVEPSRELAEQTLNNIKQFKKYIDNPKLRELLIIGGVAARDQLSVLENGVDIVVGTPGRLDDLVSTGKLNLSQVRFLVLDEADGLLSQGYSDFINRMHNQIPQVTSDGKRLQVIVCSATLHSFDVKKLSEKIMHFPTWVDLKGEDSVPDTVHHVVVPVNPKTDRLWERLGKSHIRTDDVHAKDNTRPGANSPEMWSEAIKILKGEYAVRAIKEHKMDQAIIFCRTKIDCDNLEQYFIQQGGGPDKKGHQFSCVCLHGDRKPHERKQNLERFKKGDVRFLICTDVAARGIDIHGVPYVINVTLPDEKQNYVHRIGRVGRAERMGLAISLVATEKEKVWYHVCSSRGKGCYNTRLKEDGGCTIWYNEMQLLSEIEEHLNCTISQVEPDIKVPVDEFDGKVTYGQKRAAGGGSYKGHVDILAPTVQELAALEKEAQTSFLHLGYLPNQLFRTF

- binding [1]: binds
B3: NONO (p54(nrb)) (protein, UniProt Q15233 1-471)
chain: MQSNKTFNLEKQNHTPRKHHQHHHQQQHHQQQQQQPPPPPIPANGQQASSQNEGLTIDLKNFRKPGEKTFTQRSRLFVGNLPPDITEEEMRKLFEKYGKAGEVFIHKDKGFGFIRLETRTLAEIAKVELDNMPLRGKQLRVRFACHSASLTVRNLPQYVSNELLEEAFSVFGQVERAVVIVDDRGRPSGKGIVEFSGKPAARKALDRCSEGSFLLTTFPRPVTVEPMDQLDDEEGLPEKLVIKNQQFHKEREQPPRFAQPGSFEYEYAMRWKALIEMEKQQQDQVDRNIKEAREKLEMEMEAARHEHQVMLMRQDLMRRQEELRRMEELHNQEVQKRKQLELRQEEERRRREEEMRRQQEEMMRRQQEGFKGTFPDAREQEIRMGQMAMGGAMGINNRGAMPPAPVPAGTPAPPGPATMMPDGTLGLTPPTTERFGQAATMEGIGAIGGTPPAFNRAAPGAEFAPNKRRRY

- binding [2]: no binding
B4: NF-kB repressing factor, O15226 1-690 (protein)
chain: MEKILQMAEGIDIGEMPSYDLVLSKPSKGQKRHLSTCDGQNPPKKQAGSKFHARPRFEPVHFVASSSKDERQEDPYGPQTKEVNEQTHFASMPRDIYQDYTQDSFSIQDGNSQYCDSSGFILTKDQPVTANMYFDSGNPAPSTTSQQANSQSTPEPSPSQTFPESVVAEKQYFIEKLTATIWKNLSNPEMTSGSDKINYTYMLTRCIQACKTNPEYIYAPLKEIPPADIPKNKKLLTDGYACEVRCQNIYLTTGYAGSKNGSRDRATELAVKLLQKRIEVRVVRRKFKHTFGEDLVVCQIGMSSYEFPPALKPPEDLVVLGKDASGQPIFNASAKHWTNFVITENANDAIGILNNSASFNKMSIEYKYEMMPNRTWRCRVFLQDHCLAEGYGTKKTSKHAAADEALKILQKTQPTYPSVKSSQCHTGSSPRGSGKKKDIKDLVVYENSSNPVCTLNDTAQFNRMTVEYVYERMTGLRWKCKVILESEVIAEAVGVKKTVKYEAAGEAVKTLKKTQPTVINNLKKGAVEDVISRNEIQGRSAEEAYKQQIKEDNIGNQLLRKMGWTGGGLGKSGEGIREPISVKEQHKREGLGLDVERVNKIAKRDIEQIIRNYARSESHTDLTFSRELTNDERKQIHQIAQKYGLKSKSHGVGHDRYLVVGRKRRKEDLLDQLKQEGQVGHYELVMPQAN

- binding [2]: binds
B5: Kub5-Hera (K-H/RPRD1B), Q9NQG5 1-326 (protein)
chain: MSSFSESALEKKLSELSNSQQSVQTLSLWLIHHRKHAGPIVSVWHRELRKAKSNRKLTFLYLANDVIQNSKRKGPEFTREFESVLVDAFSHVAREADEGCKKPLERLLNIWQERSVYGGEFIQQLKLSMEDSKSPPPKATEEKKSLKRTFQQIQEEEDDDYPGSYSPQDPSAGPLLTEELIKALQDLENAASGDATVRQKIASLPQEVQDVSLLEKITDKEAAERLSKTVDEACLLLAEYNGRLAAELEDRRQLARMLVEYTQNQKDVLSEKEKKLEEYKQKLARVTQVRKELKSHIQSLPDLSLLPNVTGGLAPLPSAGDLFSTD

- binding [1]: binds
B6: SSBP1 (protein, UniProt Q04837 17-148)
chain: ESETTTSLVLERSLNRVHLLGRVGQDPVLRQVEGKNPVTIFSLATNEMWRSGDSEVYQLGDVSQKTTWHRISVFRPGLRDVAYQYVKKGSRIYLEGKIDYGEYMDKNNVRRQATTIIADNIIFLSDQTKEKE

These are yes or no findings as the source states them, for the method shown. In cells and extracts the contact can be indirect. These calls come from enrichment with a bait or labelling near it, and not all partners need be listed. No binding means not detected with the bait. Where a sequence is shown, tags or fusion partners need not be part of it. One block for each molecule: values may come before it.
